Data as given in PubChem BioAssay AID504834 (National Center for Advancing Translational Sciences (NCATS), 2011).
The campaign covered roughly 320,000 compounds. About 22,000 (6.9%) were called active. Inconclusive means that the source gave no clear call. Such entries were picked first, then a sample of the others. Calls come from the whole dose curve; as a rule, active = well fitted inhibition curve with a large enough effect; inconclusive = small, poorly fitted or top-dose-only effect, or another doubt; inactive = no such curve, though single readings can be large or run the other way. A potency beside an inconclusive call is a rough fit, not a confirmed value.
% is set by controls: 0 for no effect and ±100 for the full control effect; potency is the fitted concentration of half-maximal effect.

Experiment: Primary qHTS for delayed death inhibitors of the malarial parasite plastid, 96 hour incubation
Details: P. falciparum luciferase reporter growth; series mostly up to 28.7 µM; activity change, negative = inhibition: at the top concentration
Method in brief: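 Infected RBCs, 2% Hct / 0.05% parasitemia final; luciferase-reporter P. falciparum; cpd 96 h, 37 C, 5% CO2; luciferase detection reagent; luminescence.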
In the case of `O=C(NNS(=O)(=O)c1ccccc1)c1csc(-c2cccnc2)n1`, the Potency is reported as inconclusive: 10.4 µM [inhibitor, partial curve, poor fit]. For `Cc1cnc(N)c2c(=O)oc3ccccc3c12`, the “activity change, negative = inhibition” value was inactive: 4.24%. With `CCCC(=O)Nc1c(-c2ccccc2Cl)c(=O)c2ccccc2n1C` the “activity change, negative = inhibition” value was inactive: 9.07%. For `COC(=O)c1ccc(NC(=O)CC2C(=O)N(C)C(=S)N2Cc2ccc(S(N)(=O)=O)cc2)cc1` (stereo not drawn), the Potency was inconclusive: 14.7 µM [inhibitor, single point]. In the case of `COc1ccc(OCCCn2cccc2/C=C2/C(=N)N3OC(C)=CC3=NC2=O)cc1`, the Potency is reported as inconclusive: 4.15 µM [inhibitor, single point]. With `COc1cccc(NC(=O)CSc2nnc(-c3cccnc3)o2)c1` the “activity change, negative = inhibition” value was inactive: 57.6%. For `OC(COc1ccccc1Br)CN1CCNCC1` (stereo not drawn), the Potency was inconclusive: 18.5 µM [inhibitor, single point]. With `Cc1ccc(C2=N/C(=C\c3ccc(OS(=O)(=O)c4ccc(C)cc4)cc3)C(=O)O2)cc1` the Potency was inconclusive: 11.7 µM [inhibitor, single point]. With `CCC(=O)Nc1ccc2c(c1)Cc1cc(NC(=O)CC)ccc1-2` the “activity change, negative = inhibition” value was inactive: 0%. For `COc1cccc(C(=O)COc2ccc(NC(=O)c3cccs3)cc2)c1`, the Potency was inconclusive: 8.28 µM [inhibitor, partial curve, poor fit]. In the case of `COc1ccc(OC)c(N(CC(=O)N2CCc3ccccc3C2)S(C)(=O)=O)c1`, the Potency is reported as inconclusive: 18.5 µM [inhibitor, single point]. With `COc1ccc(-c2noc(CCC(=O)Nc3cccnc3)n2)cc1OC` the Potency was inconclusive: 5.86 µM [inhibitor, partial curve, poor fit]. With `O=[N+]([O-])c1cccc(-c2nn(-c3ccccc3)cc2CO)c1` the Potency was active: 0.465 µM. For `COc1cc(Nc2ccccc2Cl)c([N+](=O)[O-])nc1[N+](=O)[O-]`, the Potency was active: 14.7 µM. With `CC(C)OC(=O)CSc1nnc(Cc2ccccc2)n1Cc1ccco1` the activity change, negative = inhibition was inactive: 20% [at 5.75 µM]. For `Cc1ccc(NC(=O)Cn2cnc3sc(C(=O)NCCN(C)C)c(C)c3c2=O)cc1Cl`, the Potency was active: 11.7 µM. With `CC(Nc1cccnc1)=C(C#N)C#N` the “activity change, negative = inhibition” value was inactive: 59.5%. In the case of `COc1ccc(C(=O)CSc2nnc(-c3ccc(C)cc3)o2)cc1`, the “activity change, negative = inhibition” value is reported as inactive: -0.398%. In the case of `CC(NC(=O)c1ccc(C23CC4CC(CC(C4)C2)C3)cc1)C(=O)O` (stereo not drawn), the Potency is reported as inconclusive: 18.5 µM [inhibitor, single point]. For `Cc1noc(C)c1COc1cccc(C(=O)Nc2ccc(C#N)cc2)c1`, the “activity change, negative = inhibition” value was inactive: 0%. In the case of `COC(CNC(=O)c1coc2nc3ccccc3nc12)OC`, the Potency is reported as inconclusive: 10.4 µM [inhibitor, single point]. For `CCc1c(C)c2ccc(OC(C)C(=O)NC(Cc3c[nH]c4ccc(O)cc34)C(=O)O)c(C)c2oc1=O` (stereo not drawn), the “activity change, negative = inhibition” value was inactive: 33.3%. With `CCCCNC(=S)Nc1cc(S(=O)(=O)N2CCCCC2)ccc1C` the Potency was inconclusive: 0.104 µM [inhibitor, full curve, poor fit]. With `Cc1ccc(/C=C2\SC(=S)N(CC(=O)Nc3cccnc3)C2=O)cc1` the Potency was inconclusive: 10.4 µM [inhibitor, single point]. In the case of `Cc1occc1C(=O)N1CCN(c2ccc(Cl)cc2)CC1`, the Potency is reported as active: 4.65 µM. For `Cc1ccc(S(=O)(=O)N(Cc2cc3ccc(C)cc3[nH]c2=O)c2ccccc2)cc1`, the Potency was inconclusive: 10.4 µM [inhibitor, single point]. With `NC(=O)C1CC(=O)N(c2ccc(OCc3ccc([N+](=O)[O-])cc3)cc2)C1` (stereo not drawn) the “activity change, negative = inhibition” value was inactive: 52.8%. In the case of `O=C(CCSc1ccc(Cl)cc1)c1cccs1`, the “activity change, negative = inhibition” value is reported as inactive: 0.282%. With `COc1cc(OC)c(OC)cc1CN1CCC(O)CC1` the “activity change, negative = inhibition” value was inactive: 3.46%. With `COc1ccccc1-c1c(C(F)(F)F)oc2c(CN(C)C)c(O)ccc2c1=O` the Potency was inconclusive: 13.1 µM [inhibitor, single point]. With `O=C(Cn1cncn1)c1ccccc1Br` the “activity change, negative = inhibition” value was inactive: 0.71%. In the case of `O=C(Nc1nccs1)c1ccc(COc2ccc(Cl)cc2)o1`, the Potency is reported as inconclusive: 0.828 µM [inhibitor, full curve, poor fit]. With `CCOc1ccc(NC(=O)CSc2nnc(CCNC(=O)c3ccc(OC)cc3)n2CC)cc1` the Potency was inconclusive: 0.131 µM [inhibitor, full curve, poor fit]. For `Cc1cccc2cc(COC(=O)C(C)(C)C)c(=O)[nH]c12`, the Potency was inconclusive: 9.28 µM [inhibitor, partial curve]. With `O=S(=O)(c1ccccc1S(=O)(=O)N1CCCCC1)N1CCCCC1` the Potency was inconclusive: 10.4 µM [inhibitor, single point]. With `O=C(O)C(C(O)c1ccc([N+](=O)[O-])cc1)[n+]1ccccc1` (stereo not drawn) the Potency was inconclusive: 18.5 µM [inhibitor, single point]. For `O=[n+]1c2c(n([O-])c3ccccc31)CCC2`, the Potency was inconclusive: 18.5 µM [inhibitor, single point]. With `Cc1ccc(Cl)c2c1NC(=O)C2(O)CC(=O)c1ccccc1O` (stereo not drawn) the Potency was active: 9.28 µM. For `COc1ccc(C(=O)Nc2ccc3c(c2)CCCN3C(=O)c2cccs2)c(OC)c1`, the Potency was active: 14.7 µM. In the case of `COc1ccc(-c2csc(/C(C#N)=C\c3ccc(O)c([N+](=O)[O-])c3)n2)cc1OC`, the Potency is reported as inconclusive: 9.28 µM [inhibitor, partial curve]. With `CCOc1ccc(NC(=O)CSc2nc3nc4c(cc3c(=O)n2CC)COC(C)(C)C4)cc1` the Potency was inconclusive: 14.7 µM [inhibitor, partial curve]. For `CCS(=O)(=O)NCC(c1cccnc1)N1CCN(c2ccc(F)cc2)CC1` (stereo not drawn), the Potency was inconclusive: 18.5 µM [inhibitor, single point]. With `CC(=O)Oc1c(Sc2ccccc2[N+](=O)[O-])c(C)nn1C(C)(C)C` the Potency was inconclusive: 11.7 µM [inhibitor, single point]. For `Cc1noc(C)c1CSCC(=O)NCCN1C(=O)S/C(=C\c2ccccc2F)C1=O`, the Potency was inconclusive: 18.5 µM [inhibitor, single point]. With `CCOC(=O)c1c(NC(=O)CN2CCOCC2)sc(C(=O)NC)c1C` the Potency was inconclusive: 0.117 µM [inhibitor, full curve, poor fit]. In the case of `COc1cc2ncnc(NCc3ccco3)c2cc1OC`, the Potency is reported as inconclusive: 11.7 µM [inhibitor, single point]. For `Cc1ccc(NC(=O)CN2CCN(S(=O)(=O)c3cccs3)CC2)cc1S(=O)(=O)N(C)C`, the Potency was inconclusive: 5.22 µM [inhibitor, partial curve, poor fit]. In the case of `O=C(CSc1nc(O)c(C2CCCCC2)c(=O)[nH]1)N1CCOCC1`, the Potency is reported as inconclusive: 9.28 µM [inhibitor, partial curve]. In the case of `CC(=O)c1cccc(OCC(=O)N2CCN(c3ccc(C(F)(F)F)cn3)CC2)c1`, the Potency is reported as active: 7.38 µM. With `COc1ccc(C(C)=O)cc1CSc1nc2ccccc2o1` the “activity change, negative = inhibition” value was inactive: -14%. With `Cc1c(F)c(N2CCNC(C)C2)cc2c1c(=O)c(C(=O)O)cn2C1CC1` (stereo not drawn) the Potency was active: 6.75 µM. In the case of `CCOc1cc(C=O)ccc1OCc1cc(=O)n2cc(C)ccc2n1`, the “activity change, negative = inhibition” value is reported as inactive: 3.92%. With `CN(C)C(CNC(=O)C1CCN(S(=O)(=O)c2ccccc2C(F)(F)F)CC1)Cc1ccccc1` (stereo not drawn) the Potency was active: 9.28 µM. With `Cc1ccc(C)c(C(=O)c2c(C)nc3sccn23)c1` the Potency was inconclusive: 11.7 µM [inhibitor, single point]. For `Cc1ccc(NC(=O)CSc2nnc(NC(=O)CN3CCOCC3)s2)cc1`, the “activity change, negative = inhibition” value was inactive: -16.7%. With `COc1ccc(N2CC(C(=O)NCc3nnnn3-c3ccc(C)c(C)c3)CC2=O)cc1` (stereo not drawn) the Potency was inconclusive: 11.7 µM [inhibitor, single point]. With `COc1cc(OC)c2c(-c3ccccc3)cc(=O)oc2c1C(CCN1CCCC(C)C1)c1ccc2c(c1)OCO2` (stereo not drawn) the Potency was inconclusive: 9.28 µM [inhibitor, single point]. In the case of `Cc1c(C)n(C)c2ccc(C(=O)NCCCN3CCOCC3)cc12`, the Potency is reported as inconclusive: 18.5 µM [inhibitor, partial curve, poor fit]. For `CC1CCN(C(=O)CCCC(=O)N2CCC(C)CC2)CC1`, the Potency was inconclusive: 20.8 µM [inhibitor, single point]. In the case of `Cn1c(=O)c2c(nc(CN3CCC(C(N)=O)CC3)n2Cc2c(F)cccc2Cl)n(C)c1=O`, the Potency is reported as active: 10.4 µM. With `C/C(N)=C(\C#N)C(=O)NCCc1ccccn1` the Potency was inconclusive: 13.1 µM [inhibitor, single point]. For `CCN1CCN(c2cc(C)c3cc(NC(=O)c4ccc5c(c4)OCO5)ccc3n2)CC1`, the “activity change, negative = inhibition” value was inactive: -5.06%. With `COc1cccc(-c2ccc3ncnc(NCc4cccs4)c3c2)c1` the Potency was active: 4.15 µM. In the case of `CCCCCn1c(SCC(=O)CC(=O)OCC)nc2cc(C(=O)N3CCC(C(N)=O)CC3)ccc2c1=O`, the “activity change, negative = inhibition” value is reported as inactive: 37.1%. With `CCC(C)OC(=O)C1C(c2ccccc2)C(C(=O)O)C1c1ccccc1` (stereo not drawn) the Potency was inconclusive: 8.28 µM [inhibitor, partial curve, poor fit]. With `Cc1ccc(-c2nnc(CSc3nnc(COc4cccc5ccccc45)n3-c3ccccc3)o2)cc1` the Potency was active: 13.1 µM. With `O=C(N/N=C/C=C/c1ccccc1[N+](=O)[O-])c1ccncc1` the “activity change, negative = inhibition” value was inactive: 45.9%. With `O=C1CSC(=Nc2ccccc2)N1` the “activity change, negative = inhibition” value was inactive: -16.1%. With `COc1ccc2nc(NC(=O)C(NS(=O)(=O)c3cccc4nsnc34)C(C)C)sc2c1` (stereo not drawn) the Potency was inconclusive: 0.928 µM [inhibitor, partial curve, poor fit]. In the case of `COc1cccc(C(=O)Oc2ccc3ccc(=O)oc3c2)c1`, the “activity change, negative = inhibition” value is reported as inactive: 12.1%. In the case of `C=CCOc1ccccc1/C=N/NC(=O)Cc1ccc(C)cc1`, the “activity change, negative = inhibition” value is reported as inactive: 1.26%. In the case of `Cc1ccnc2nc(C(=O)NC3=NCCS3)nn12`, the Potency is reported as inconclusive: 14.7 µM [inhibitor, single point]. With `Cc1ccc(NC(=O)CCCSc2ccccc2)cc1S(=O)(=O)N1CCOCC1` the Potency was inconclusive: 1.17 µM [inhibitor, partial curve, poor fit].
